From paper PMC5736709, “Unravelling the specificity and mechanism of sialic acid recognition by the gut symbiont Ruminococcus gnavus” (Nature Communications, 2017)
Results are given in words; binding and its absence hold for the method and conditions named.

Target: RgNanH (residues 26–723), intramolecular trans-sialidase from Ruminococcus gnavus ATCC 29149 (Ruminococcus gnavus ATCC 29149) (UniProt A7B557)
Assay: SEC-MALS; RgNanH with the His tag cleaved; NGC chromatography system with DAWN HELEOS II MALS and Optilab T-rEX detectors; measured 73 kDa against 77 kDa expected; both purified

binding: no binding
B1: RgNanH (residues 26–723), intramolecular trans-sialidase from Ruminococcus gnavus ATCC 29149 (enzyme, UniProt A7B557 26-723)
chain: QEAQTDVIEAVAEKKQDTESSSVPVLQKEGIEISEGTGYDLSKEPGAATVKALEQGTIVISYKTTSENAIQSLLSVGNGTKGNQDRHFHLYITNAGGVGMELRNTDGEFKYTLDCPAAVRGSYKGERVSNTVALKADKENKQYKLFANGELIATLDQEAFKFISDITGVDNVMLGGTMRQGTVAYPFGGSIERMQVYRDVLSDDELIAVTGKTIYAENIFYAGDATKSNYFRIPSLLALDSGTVIAAADARYGGTHDAKSKINTAFAKSTDGGKTWGQPTLPLKFDDYVAKNIDWPRDSVGKNVQIQGSASYIDPVLLEDKETHRVFLFADMMPAGIGSSNASVGSGFKEVDGKKYLKLHWKDDAAGTYDYSVRENGTIYNDTTNSATEYSVDGEYNLYKNGNAMLCKQYDYNFEGTKLLETQTDTDVNMNVFYKDADFKVFPTTYLAMKYSDDEGETWSDLQIVSTFKPEESKFLVLGPGVGKQIANGEHAGRLIVPLYSKSSAELGFMYSDDHGNNWTYVEADQNTGGATAEAQIVEMPDGSLKTYLRTGSGYIAQVMSTDGGETWSERVPLTEIATTGYGTQLSVINYSQPVDGKPAILLSAPNATNGRKNGKIWIGLISETGNSGKDKYSVDWKYCYSVDTPQMGYSYSCLTELPDGEIGLLYEKYDSWSRNELHLKNILKYERFNIDELKVQP
